In the supplement of paper PMC10849652:
Some of the results follow.

By UniProt entry, the sequences of proteins in these tests, tags left out. Where a name states a change or a piece, a line headed by the entry shows the natural chain unless it says otherwise.
UniProt Q5EBL4: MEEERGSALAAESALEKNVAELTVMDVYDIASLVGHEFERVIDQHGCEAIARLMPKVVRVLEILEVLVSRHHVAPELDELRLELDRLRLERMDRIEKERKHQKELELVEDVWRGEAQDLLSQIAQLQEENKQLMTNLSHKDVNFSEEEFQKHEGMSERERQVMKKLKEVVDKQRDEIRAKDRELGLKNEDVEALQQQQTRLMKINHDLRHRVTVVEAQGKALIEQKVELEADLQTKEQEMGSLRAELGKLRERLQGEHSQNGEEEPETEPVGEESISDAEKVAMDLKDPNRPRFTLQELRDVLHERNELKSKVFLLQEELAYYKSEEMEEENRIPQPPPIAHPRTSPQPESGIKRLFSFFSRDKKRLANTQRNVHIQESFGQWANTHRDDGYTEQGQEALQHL
UniProt P08134, whole entry, looked up: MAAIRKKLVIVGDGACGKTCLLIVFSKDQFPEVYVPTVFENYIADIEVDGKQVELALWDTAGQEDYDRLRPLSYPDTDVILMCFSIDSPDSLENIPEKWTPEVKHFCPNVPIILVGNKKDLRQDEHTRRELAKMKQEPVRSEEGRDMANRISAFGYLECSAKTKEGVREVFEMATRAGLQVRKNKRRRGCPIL
UniProt Q9Y508: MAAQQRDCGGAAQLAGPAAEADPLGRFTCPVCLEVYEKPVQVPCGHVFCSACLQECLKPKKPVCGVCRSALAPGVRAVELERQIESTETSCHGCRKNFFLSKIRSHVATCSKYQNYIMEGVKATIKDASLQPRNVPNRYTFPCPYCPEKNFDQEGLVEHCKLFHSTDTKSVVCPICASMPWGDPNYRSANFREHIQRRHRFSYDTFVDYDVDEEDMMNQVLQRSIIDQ
UniProt Q9H6W3: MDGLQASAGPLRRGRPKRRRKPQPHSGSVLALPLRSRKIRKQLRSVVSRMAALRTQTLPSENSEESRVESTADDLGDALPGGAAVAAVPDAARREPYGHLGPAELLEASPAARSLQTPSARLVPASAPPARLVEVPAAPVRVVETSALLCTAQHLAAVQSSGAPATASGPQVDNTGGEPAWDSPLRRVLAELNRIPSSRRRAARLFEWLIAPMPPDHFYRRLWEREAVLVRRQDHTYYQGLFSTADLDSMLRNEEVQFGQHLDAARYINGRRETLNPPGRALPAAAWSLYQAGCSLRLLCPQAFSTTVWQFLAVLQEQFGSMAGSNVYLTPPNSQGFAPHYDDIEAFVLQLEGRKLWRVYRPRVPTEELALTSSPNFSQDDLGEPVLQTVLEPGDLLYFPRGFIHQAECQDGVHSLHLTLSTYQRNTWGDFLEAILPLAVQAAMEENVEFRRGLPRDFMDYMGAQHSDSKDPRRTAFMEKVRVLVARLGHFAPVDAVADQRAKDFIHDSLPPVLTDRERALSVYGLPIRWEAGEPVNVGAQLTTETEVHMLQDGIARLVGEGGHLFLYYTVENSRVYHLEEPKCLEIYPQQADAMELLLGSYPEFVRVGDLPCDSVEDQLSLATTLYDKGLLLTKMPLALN
UniProt Q969K3: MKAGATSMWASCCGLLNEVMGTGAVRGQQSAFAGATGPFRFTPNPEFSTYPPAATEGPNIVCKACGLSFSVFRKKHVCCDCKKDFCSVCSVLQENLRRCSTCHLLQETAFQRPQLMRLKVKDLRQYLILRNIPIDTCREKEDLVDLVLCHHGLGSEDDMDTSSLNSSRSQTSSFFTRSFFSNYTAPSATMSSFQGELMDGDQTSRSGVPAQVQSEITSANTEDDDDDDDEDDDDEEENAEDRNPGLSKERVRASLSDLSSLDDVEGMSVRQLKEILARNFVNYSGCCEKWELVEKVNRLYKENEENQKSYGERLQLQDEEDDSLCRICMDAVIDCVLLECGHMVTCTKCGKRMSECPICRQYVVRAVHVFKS
UniProt Q96TC7: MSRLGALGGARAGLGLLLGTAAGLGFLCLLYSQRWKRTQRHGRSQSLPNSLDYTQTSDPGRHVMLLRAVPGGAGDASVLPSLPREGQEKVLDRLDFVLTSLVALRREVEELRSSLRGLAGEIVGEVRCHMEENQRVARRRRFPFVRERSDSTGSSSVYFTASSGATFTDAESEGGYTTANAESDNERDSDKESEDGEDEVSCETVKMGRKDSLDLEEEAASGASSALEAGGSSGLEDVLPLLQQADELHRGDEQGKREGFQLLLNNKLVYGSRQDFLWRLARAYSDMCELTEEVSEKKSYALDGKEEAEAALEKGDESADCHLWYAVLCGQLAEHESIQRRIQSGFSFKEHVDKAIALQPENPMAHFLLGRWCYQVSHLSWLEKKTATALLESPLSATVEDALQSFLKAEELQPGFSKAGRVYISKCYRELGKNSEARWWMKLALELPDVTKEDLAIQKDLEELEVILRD
UniProt Q9H920: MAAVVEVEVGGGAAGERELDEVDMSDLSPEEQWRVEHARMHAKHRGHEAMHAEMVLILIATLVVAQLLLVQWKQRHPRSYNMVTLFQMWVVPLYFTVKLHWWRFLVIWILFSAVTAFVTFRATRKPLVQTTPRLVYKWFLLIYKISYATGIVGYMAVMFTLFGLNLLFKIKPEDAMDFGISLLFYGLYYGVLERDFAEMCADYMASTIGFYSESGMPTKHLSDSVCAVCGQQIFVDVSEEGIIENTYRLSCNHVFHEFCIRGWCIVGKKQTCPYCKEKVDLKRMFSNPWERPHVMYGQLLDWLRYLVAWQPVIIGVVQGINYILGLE
UniProt Q9H4A4: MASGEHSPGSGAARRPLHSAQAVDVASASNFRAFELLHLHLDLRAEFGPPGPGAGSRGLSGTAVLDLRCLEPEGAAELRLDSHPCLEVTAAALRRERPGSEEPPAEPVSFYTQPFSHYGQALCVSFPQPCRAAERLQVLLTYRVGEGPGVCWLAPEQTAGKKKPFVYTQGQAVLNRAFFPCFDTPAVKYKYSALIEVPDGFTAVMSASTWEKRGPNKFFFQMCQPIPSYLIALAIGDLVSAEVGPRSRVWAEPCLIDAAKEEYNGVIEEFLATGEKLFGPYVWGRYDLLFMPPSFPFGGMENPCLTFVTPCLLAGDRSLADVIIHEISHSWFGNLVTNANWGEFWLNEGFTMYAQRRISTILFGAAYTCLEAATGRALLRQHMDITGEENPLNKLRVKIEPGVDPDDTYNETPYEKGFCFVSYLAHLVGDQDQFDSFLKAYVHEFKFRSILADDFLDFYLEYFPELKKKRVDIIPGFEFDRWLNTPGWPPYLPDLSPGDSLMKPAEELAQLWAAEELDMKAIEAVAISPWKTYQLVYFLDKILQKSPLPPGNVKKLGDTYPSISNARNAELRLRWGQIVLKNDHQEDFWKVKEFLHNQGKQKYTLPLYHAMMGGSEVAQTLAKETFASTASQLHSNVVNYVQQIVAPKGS
UniProt Q96DB5: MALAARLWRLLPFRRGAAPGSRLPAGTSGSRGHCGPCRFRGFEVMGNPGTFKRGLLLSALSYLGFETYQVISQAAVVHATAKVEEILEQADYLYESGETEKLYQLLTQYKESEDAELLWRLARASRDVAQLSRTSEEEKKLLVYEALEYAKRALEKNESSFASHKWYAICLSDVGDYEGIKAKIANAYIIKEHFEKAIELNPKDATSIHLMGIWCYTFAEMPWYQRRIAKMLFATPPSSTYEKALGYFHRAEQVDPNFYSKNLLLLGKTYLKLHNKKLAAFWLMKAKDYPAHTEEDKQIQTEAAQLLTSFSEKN
UniProt Q13546: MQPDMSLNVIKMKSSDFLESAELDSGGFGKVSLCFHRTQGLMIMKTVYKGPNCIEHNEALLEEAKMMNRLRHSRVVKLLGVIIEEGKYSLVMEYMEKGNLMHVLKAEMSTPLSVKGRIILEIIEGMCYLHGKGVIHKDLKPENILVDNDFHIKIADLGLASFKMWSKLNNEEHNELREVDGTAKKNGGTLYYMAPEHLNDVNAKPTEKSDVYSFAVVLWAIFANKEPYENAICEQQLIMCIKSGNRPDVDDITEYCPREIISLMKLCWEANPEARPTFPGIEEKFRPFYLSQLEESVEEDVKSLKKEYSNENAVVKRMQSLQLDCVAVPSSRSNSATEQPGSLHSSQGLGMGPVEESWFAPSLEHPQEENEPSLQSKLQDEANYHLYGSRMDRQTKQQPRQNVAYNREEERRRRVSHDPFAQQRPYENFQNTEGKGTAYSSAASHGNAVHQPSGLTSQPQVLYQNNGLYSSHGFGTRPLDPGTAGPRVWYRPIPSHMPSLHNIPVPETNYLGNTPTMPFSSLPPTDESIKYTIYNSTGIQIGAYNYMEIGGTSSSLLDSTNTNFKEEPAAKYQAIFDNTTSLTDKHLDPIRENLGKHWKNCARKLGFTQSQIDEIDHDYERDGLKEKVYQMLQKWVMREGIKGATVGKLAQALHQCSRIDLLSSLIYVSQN
UniProt Q8IUC4: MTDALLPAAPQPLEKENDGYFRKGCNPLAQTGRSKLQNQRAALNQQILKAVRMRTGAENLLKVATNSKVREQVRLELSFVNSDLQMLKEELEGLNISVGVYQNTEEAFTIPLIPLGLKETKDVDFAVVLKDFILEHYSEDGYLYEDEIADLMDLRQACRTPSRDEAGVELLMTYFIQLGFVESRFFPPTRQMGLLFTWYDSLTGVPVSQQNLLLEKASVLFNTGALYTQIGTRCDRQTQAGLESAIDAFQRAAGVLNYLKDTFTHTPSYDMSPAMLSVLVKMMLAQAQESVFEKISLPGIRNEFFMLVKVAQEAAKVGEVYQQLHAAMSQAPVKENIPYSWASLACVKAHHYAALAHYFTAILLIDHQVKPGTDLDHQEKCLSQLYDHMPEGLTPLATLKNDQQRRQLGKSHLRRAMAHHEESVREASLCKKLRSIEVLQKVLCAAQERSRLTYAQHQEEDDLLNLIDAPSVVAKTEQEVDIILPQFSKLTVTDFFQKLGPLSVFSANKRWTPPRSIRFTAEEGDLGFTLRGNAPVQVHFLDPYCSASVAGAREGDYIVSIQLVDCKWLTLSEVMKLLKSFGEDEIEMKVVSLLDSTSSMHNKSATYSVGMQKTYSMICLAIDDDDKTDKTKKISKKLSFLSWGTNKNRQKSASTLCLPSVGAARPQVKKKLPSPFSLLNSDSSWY
UniProt Q9NVW2: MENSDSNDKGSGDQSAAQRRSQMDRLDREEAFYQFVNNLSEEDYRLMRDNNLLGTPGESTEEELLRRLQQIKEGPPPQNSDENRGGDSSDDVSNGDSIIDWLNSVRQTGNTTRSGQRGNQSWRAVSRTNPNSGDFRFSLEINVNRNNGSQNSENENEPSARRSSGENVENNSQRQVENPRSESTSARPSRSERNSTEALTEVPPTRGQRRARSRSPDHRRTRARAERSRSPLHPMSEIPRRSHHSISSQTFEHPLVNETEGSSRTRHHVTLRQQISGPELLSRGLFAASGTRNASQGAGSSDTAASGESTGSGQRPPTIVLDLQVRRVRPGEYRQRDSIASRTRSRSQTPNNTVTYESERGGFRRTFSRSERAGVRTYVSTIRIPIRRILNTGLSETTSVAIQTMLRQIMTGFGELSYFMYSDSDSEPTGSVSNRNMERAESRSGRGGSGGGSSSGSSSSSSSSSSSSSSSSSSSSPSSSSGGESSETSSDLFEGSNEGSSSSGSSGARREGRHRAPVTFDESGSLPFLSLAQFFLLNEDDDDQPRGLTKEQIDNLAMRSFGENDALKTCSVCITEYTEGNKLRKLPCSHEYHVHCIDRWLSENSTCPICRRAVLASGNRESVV
UniProt Q6ZNA4: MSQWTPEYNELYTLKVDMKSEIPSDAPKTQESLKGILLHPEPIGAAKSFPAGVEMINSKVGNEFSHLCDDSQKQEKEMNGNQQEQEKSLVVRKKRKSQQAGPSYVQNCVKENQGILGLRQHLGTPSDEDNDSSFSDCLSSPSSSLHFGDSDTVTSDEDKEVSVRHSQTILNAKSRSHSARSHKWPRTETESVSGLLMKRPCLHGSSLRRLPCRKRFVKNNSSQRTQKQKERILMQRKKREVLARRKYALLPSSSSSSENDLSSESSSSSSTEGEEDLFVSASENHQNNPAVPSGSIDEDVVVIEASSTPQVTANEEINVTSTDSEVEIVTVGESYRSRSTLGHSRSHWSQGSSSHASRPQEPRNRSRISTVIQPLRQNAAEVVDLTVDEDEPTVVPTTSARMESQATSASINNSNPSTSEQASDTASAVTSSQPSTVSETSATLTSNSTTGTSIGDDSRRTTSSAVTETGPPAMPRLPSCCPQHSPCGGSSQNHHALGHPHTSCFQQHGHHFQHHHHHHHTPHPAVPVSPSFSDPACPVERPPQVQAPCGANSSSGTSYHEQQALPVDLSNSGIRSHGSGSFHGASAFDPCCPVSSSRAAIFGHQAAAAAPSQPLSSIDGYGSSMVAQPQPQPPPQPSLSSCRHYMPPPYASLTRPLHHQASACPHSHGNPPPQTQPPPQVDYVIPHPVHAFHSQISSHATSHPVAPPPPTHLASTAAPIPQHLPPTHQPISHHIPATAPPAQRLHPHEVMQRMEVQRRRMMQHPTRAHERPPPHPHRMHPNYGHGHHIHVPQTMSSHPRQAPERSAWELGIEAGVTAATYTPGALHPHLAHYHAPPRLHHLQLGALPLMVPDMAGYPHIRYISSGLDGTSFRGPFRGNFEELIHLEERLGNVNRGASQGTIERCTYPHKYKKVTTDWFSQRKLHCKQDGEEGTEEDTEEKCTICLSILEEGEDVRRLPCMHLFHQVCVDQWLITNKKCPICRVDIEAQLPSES

Assays:
Test in all cases: log2 fold change, soluble protein after heating vs DMSO (PISA); higher = thermal stabilisation; K562 lysate, 10 uM; active = over 0.2 and 3.5 SD of the protein, either way, in both replicates (recomputed)
[1] = compound: Cc1cn(-c2cc(NC(=O)c3ccc(C)c(Nc4nccc(-c5cccnc5)n4)c3)cc(C(F)(F)F)c2)cn1 [nilotinib]
In short: (§1)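 Log-two fold change in thermal stability relative to solvent controls is reported from duplicates. For each sample, crude K562 extract from dounce-homogenised pellets in PBS pH 7.4 with 1 mM MgCl2, at 1 mg/mL protein, was treated with 10 μM compound for 30 min. Aliquots heated for 3 min across 48°C-58°C were pooled, brought to 0.5% NP-40 at 4°C and cleared at 21,000xg for 90 min. The supernatant was quantified by TMTpro 16plex LC-MS/MS with channel sums equalised.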

[2] = compound: Cc1nc(Nc2n[nH]c3c2CN(C(=O)N[C@H](CN(C)C)c2ccccc2)C3(C)C)c2sccc2n1
In short: as §1

[3] = compound: Cc1nc(Nc2ncc(C(=O)Nc3c(C)cccc3Cl)s2)cc(N2CCN(CCO)CC2)n1 [dasatinib]
In short: as §1

[4] = compound: Cc1ncc(-c2ccnc(Nc3ccc(S(C)(=O)=O)cc3)n2)n1C(C)C
In short: as §1

[5] = compound: Cn1cc(-c2ccc3c(c2)CCN3C(=O)Cc2cccc(C(F)(F)F)c2)c2c(N)ncnc21
In short: as §1

[6] = compound: Cn1cc(CNCC2CCN(c3ncc(C(=O)NO)cn3)CC2)c2ccccc21 [quisinostat]
In short: as §1

[7] = compound: Cn1cncc1[C@@](N)(c1ccc(Cl)cc1)c1ccc2c(c1)c(-c1cccc(Cl)c1)cc(=O)n2C [tipifarnib]
In short: as §1

[8] = compound: NC(=O)Nc1cc(-c2cccc(F)c2)sc1C(=O)N[C@H]1CCCNC1
In short: as §1

[9] = compound: NC(=O)c1cnc(N[C@@H]2CCCC[C@@H]2N)nc1Nc1cccc(-n2nccn2)c1
In short: as §1

[10] = compound: NC1(c2ccc(-c3nc4ccn5c(=O)[nH]nc5c4cc3-c3ccccc3)cc2)CCC1
In short: as §1

Target	log2 fold change [1]	log2 fold change [2]	log2 fold change [3]	log2 fold change [4]	log2 fold change [5]	log2 fold change [6]	log2 fold change [7]	log2 fold change [8]	log2 fold change [9]	log2 fold change [10]
RPL23 (UniProt P62829)	inactive: 0.021	inactive: -0.011	inactive: -0.025	inactive: -0.036	inactive: -0.001	inactive: 0.005	inactive: -0.001	inactive: -0.001	inactive: 0.003	inactive: -0.006
RNASEH2B (UniProt Q5TBB1)	inactive: 0.024	inactive: 0.007	inactive: -0.024	inactive: -0.001	inactive: -0.011	inactive: -0.059	inactive: -0.009	inactive: 0.037	inactive: 0.004	inactive: -0.015
RNF220 (UniProt Q5VTB9)	inactive: -0.084	inactive: 0.048	inactive: -0.014	inactive: -0.079	inactive: 0	inactive: -0.049	inactive: 0.057	inactive: 0.015	inactive: 0.04	inactive: 0.05
RNF213, A0A0A0MTC1	inactive: 0.015	inactive: -0.016	inactive: -0.027	inactive: -0.019	inactive: 0.035	inactive: -0.033	inactive: 0.001	inactive: 0.071	inactive: 0.015	inactive: -0.016
RILPL1 (UniProt Q5EBL4)	inactive: 0.015	inactive: -0.014	inactive: 0.002	inactive: -0.014	inactive: 0.031	inactive: -0.023	inactive: -0.007	inactive: 0.002	inactive: 0.021	inactive: -0.004
RHOC (UniProt P08134)	inactive: 0.014	inactive: 0.014	inactive: -0.003	inactive: 0.011	inactive: -0.012	inactive: 0.015	inactive: -0.026	inactive: -0.025	inactive: -0.012	inactive: 0.024
RNF114 (UniProt Q9Y508)	inactive: 0.022	inactive: 0.022	inactive: -0.048	inactive: 0.021	inactive: -0.095	inactive: 0.051	inactive: 0.005	inactive: -0.035	inactive: -0.037	inactive: -0.047
RPL13 (UniProt P26373)	inactive: -0.012	inactive: 0.002	inactive: 0.023	inactive: -0.027	inactive: -0.013	inactive: 0.117	inactive: 0.01	inactive: -0.015	inactive: -0.021	inactive: -0.01
RIOX1 (UniProt Q9H6W3)	inactive: 0.085	inactive: -0.037	inactive: -0.088	inactive: 0	inactive: 0.012	inactive: -0.029	inactive: 0.223	inactive: 0.05	inactive: 0.074	inactive: -0.04
RPL35 (UniProt P42766)	inactive: -0.011	inactive: 0.038	inactive: -0.03	inactive: -0.01	inactive: -0.026	inactive: -0.017	inactive: -0.015	inactive: 0.037	inactive: -0.043	inactive: -0.038
RNF34 isoform 2 (UniProt Q969K3)	inactive: 0.058	inactive: 0.053	inactive: -0.05	inactive: 0.254	inactive: 0.052	inactive: -0.01	inactive: -0.193	inactive: -0.014	inactive: 0.246	inactive: -0.059
RPL28 (UniProt P46779)	inactive: -0.018	inactive: -0.011	inactive: 0.009	inactive: -0.015	inactive: -0.005	inactive: 0.08	inactive: 0.002	inactive: -0.028	inactive: -0.011	inactive: -0.023
RMDN3 (UniProt Q96TC7)	inactive: 0.017	inactive: 0.009	inactive: 0.012	inactive: 0.024	inactive: 0.03	inactive: -0.016	inactive: -0.025	inactive: 0.024	inactive: -0.008	inactive: 0
RHOT1 isoform 3 (UniProt Q8IXI2)	inactive: 0.01	inactive: -0.034	inactive: -0.049	inactive: -0.015	inactive: 0.07	inactive: -0.018	inactive: -0.002	inactive: 0.058	inactive: -0.022	inactive: 0.046
RNF121 (UniProt Q9H920)	inactive: -0.009	inactive: -0.055	inactive: 0	inactive: -0.078	inactive: -0.086	inactive: -0.049	inactive: 0.13	inactive: 0.016	inactive: 0.12	inactive: 0.028
RPL27 (UniProt P61353)	inactive: 0.022	inactive: -0.029	inactive: -0.049	inactive: 0.01	inactive: 0	inactive: 0.054	inactive: -0.01	inactive: -0.017	inactive: -0.023	inactive: 0.012

Target	log2 fold change [1]	log2 fold change [2]	log2 fold change [3]	log2 fold change [4]	log2 fold change [5]	log2 fold change [6]	log2 fold change [7]	log2 fold change [8]	log2 fold change [9]	log2 fold change [10]
RPIA (UniProt P49247)	inactive: 0.03	inactive: -0.024	inactive: -0.007	inactive: -0.008	inactive: -0.037	inactive: -0.024	inactive: 0.047	inactive: 0.014	inactive: -0.012	inactive: 0.03
RNPEP (UniProt Q9H4A4)	inactive: 0.01	inactive: 0.021	inactive: 0.051	inactive: -0.021	inactive: -0.012	inactive: -0.007	inactive: 0	inactive: -0.008	inactive: 0.014	inactive: -0.011
RPL21 (UniProt P46778)	inactive: 0.018	inactive: -0.037	inactive: 0.023	inactive: -0.019	inactive: -0.032	inactive: -0.033	inactive: 0.019	inactive: 0.004	inactive: 0	inactive: -0.068
RNF214 (UniProt Q8ND24)	inactive: -0.014	inactive: -0.003	inactive: -0.038	inactive: 0.012	inactive: 0	inactive: 0.029	inactive: -0.029	inactive: -0.008	inactive: 0.008	inactive: 0.038
RPL32 (UniProt P62910)	inactive: 0.03	inactive: -0.014	inactive: 0.025	inactive: 0.004	inactive: -0.028	inactive: 0.035	inactive: 0.001	inactive: -0.014	inactive: -0.073	inactive: 0.002
RMDN1 (UniProt Q96DB5)	inactive: 0.048	inactive: 0	inactive: -0.015	inactive: -0.002	inactive: 0.009	inactive: 0.052	inactive: 0.023	inactive: 0.005	inactive: 0.001	inactive: 0.014
RIC8B isoform 1 (UniProt Q9NVN3)	inactive: 0.007	inactive: -0.041	inactive: 0	inactive: -0.012	inactive: -0.068	inactive: 0.008	inactive: 0.002	inactive: -0.02	inactive: -0.006	inactive: -0.022
RPL3 (UniProt P39023)	inactive: 0.006	inactive: -0.006	inactive: 0.032	inactive: -0.01	inactive: 0.024	inactive: 0.156	inactive: 0.012	inactive: 0	inactive: -0.011	inactive: 0.019
RHOT2 (UniProt Q8IXI1)	inactive: -0.023	inactive: -0.033	inactive: -0.027	inactive: 0.042	inactive: 0.002	inactive: -0.021	inactive: -0.028	inactive: 0.026	inactive: 0.025	inactive: 0
RIPK1 (UniProt Q13546)	inactive: -0.053	inactive: -0.014	inactive: 0.087	active: 0.248	active: 0.723	inactive: -0.074	inactive: -0.064	inactive: 0.015	inactive: 0.01	inactive: -0.047
RNF13 (UniProt O43567)										inactive: -0.067
RHPN2 (UniProt Q8IUC4)	inactive: -0.154	inactive: 0.057		inactive: -0.221		inactive: -0.172	inactive: 0.159	inactive: -0.045	inactive: -0.082	inactive: -0.152
RNF130 (UniProt Q86XS8)			inactive: -0.05		inactive: 0.044	inactive: -0.17		inactive: 0.09		
RLIM (UniProt Q9NVW2)						active: -0.748		inactive: 0.233		
RNF111 isoform 3 (UniProt Q6ZNA4)						inactive: 0.102		inactive: -0.019		
RHOBTB3 (UniProt O94955)	inactive: -0.029	inactive: 0.175		inactive: 0.084			inactive: 0.006			inactive: -0.184

For convenience, part of the list above:
Target	log2 fold change [1]	log2 fold change [2]	log2 fold change [3]	log2 fold change [4]	log2 fold change [5]	log2 fold change [6]	log2 fold change [7]	log2 fold change [8]	log2 fold change [9]	log2 fold change [10]
RNF114 (UniProt Q9Y508)	inactive: 0.022	inactive: 0.022	inactive: -0.048	inactive: 0.021	inactive: -0.095	inactive: 0.051	inactive: 0.005	inactive: -0.035	inactive: -0.037	inactive: -0.047
RPL13 (UniProt P26373)	inactive: -0.012	inactive: 0.002	inactive: 0.023	inactive: -0.027	inactive: -0.013	inactive: 0.117	inactive: 0.01	inactive: -0.015	inactive: -0.021	inactive: -0.01
RIOX1 (UniProt Q9H6W3)	inactive: 0.085	inactive: -0.037	inactive: -0.088	inactive: 0	inactive: 0.012	inactive: -0.029	inactive: 0.223	inactive: 0.05	inactive: 0.074	inactive: -0.04
RPL35 (UniProt P42766)	inactive: -0.011	inactive: 0.038	inactive: -0.03	inactive: -0.01	inactive: -0.026	inactive: -0.017	inactive: -0.015	inactive: 0.037	inactive: -0.043	inactive: -0.038
RNF34 isoform 2 (UniProt Q969K3)	inactive: 0.058	inactive: 0.053	inactive: -0.05	inactive: 0.254	inactive: 0.052	inactive: -0.01	inactive: -0.193	inactive: -0.014	inactive: 0.246	inactive: -0.059
RPL28 (UniProt P46779)	inactive: -0.018	inactive: -0.011	inactive: 0.009	inactive: -0.015	inactive: -0.005	inactive: 0.08	inactive: 0.002	inactive: -0.028	inactive: -0.011	inactive: -0.023
RMDN3 (UniProt Q96TC7)	inactive: 0.017	inactive: 0.009	inactive: 0.012	inactive: 0.024	inactive: 0.03	inactive: -0.016	inactive: -0.025	inactive: 0.024	inactive: -0.008	inactive: 0
RHOT1 isoform 3 (UniProt Q8IXI2)	inactive: 0.01	inactive: -0.034	inactive: -0.049	inactive: -0.015	inactive: 0.07	inactive: -0.018	inactive: -0.002	inactive: 0.058	inactive: -0.022	inactive: 0.046
RNF121 (UniProt Q9H920)	inactive: -0.009	inactive: -0.055	inactive: 0	inactive: -0.078	inactive: -0.086	inactive: -0.049	inactive: 0.13	inactive: 0.016	inactive: 0.12	inactive: 0.028
